The text below walks through data of paper PMC7606276, “The Antibacterial Effects of New N-Alkylpyridinium Salts on Planktonic and Biofilm Bacteria” (Frontiers in Microbiology, 2020).

SMILES strings stand for the structures.

The test system of the test is CHO-K1 cells. The test can be described thus: MTT cell viability assay on CHO-K1 cells. The note with it: Cricetulus griseus, CHO-K1, 24 h, read-out: IC50 ± SEM. Format: cell-based, Chinese hamster. The method, then: Standard MTT assay (3-(4,5-dimethylthiazol-2-yl)-2,5-diphenyltetrazolium bromide; Sigma-Aldrich, Prague, Czechia) was used according to the manufacturer’s protocol on the CHO-K1 (Chinese hamster ovary, ECACC, Salisbury, United Kingdom) in order to compare the effect of different compounds within the series. The cells were cultured according to ECACC recommended conditions and seeded in a density of 8000 per well as described previously ([Soukup et al., 2020]). […] In the case of sodium hypochloride, the commercially available detergent called Savo containing this active compound was diluted to the initial half concentration (i.e., 2.35%) with the supplemented growth medium mentioned above. Thereafter, CHO-K1 cells were exposed to two-fold diluted series A, B, C or ten-fold diluted sodium hypochlorite for 24 h. Then the medium was replaced by a medium containing 0.5 mg/ml of MTT and the cells were allowed to produce formazan for approximately 3 h under surveillance. […] Cell viability was assessed spectrophotometrically by the amount of formazan produced. The absorbance was measured at 570 nm on Synergy HT (BioTek, Winooski, VT, United States). IC50 (half maximal inhibitory concentration) was then calculated from the control – subtracted triplicates using non-linear regression (four parameters) by GraphPad Prism 5.03 or 7.03 software (GraphPad Software Inc., San Diego, CA, United States). […]
On the technique in general: Formazan colour is commonly taken as a measure of viable cells.

What is called IC50 is the midpoint of a concentration-inhibition curve. On to `CCCCCCCCCCCCCCCC[n+]1ccccc1` [Compound A16], for which the IC50 amounted to 16.7 ± 0.2 µM.
